Reference: patent US20220372155A1
No constants are given. Whether binding was seen depends on the method and setting. Some entries that bind do so weakly or less than the wild type.

T1: human B7H3 expressed on CHO cells (human) (UniProt Q5ZPR3)
T1 sequence (looked up): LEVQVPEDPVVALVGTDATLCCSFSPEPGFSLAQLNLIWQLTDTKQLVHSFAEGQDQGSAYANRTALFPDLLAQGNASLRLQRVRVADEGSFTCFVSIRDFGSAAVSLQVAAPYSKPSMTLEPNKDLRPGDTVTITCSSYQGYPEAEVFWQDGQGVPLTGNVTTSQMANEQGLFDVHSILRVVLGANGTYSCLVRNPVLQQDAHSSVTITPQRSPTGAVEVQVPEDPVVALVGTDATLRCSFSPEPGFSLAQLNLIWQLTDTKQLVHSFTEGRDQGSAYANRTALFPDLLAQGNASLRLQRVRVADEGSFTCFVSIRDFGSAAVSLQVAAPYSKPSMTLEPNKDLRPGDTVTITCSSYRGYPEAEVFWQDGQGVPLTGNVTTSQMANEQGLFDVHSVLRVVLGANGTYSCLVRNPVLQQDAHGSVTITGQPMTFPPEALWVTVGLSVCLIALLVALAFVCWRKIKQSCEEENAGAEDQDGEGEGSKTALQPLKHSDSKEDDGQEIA

T2: B7H3 (human) (UniProt Q5ZPR3)
T2 sequence (looked up): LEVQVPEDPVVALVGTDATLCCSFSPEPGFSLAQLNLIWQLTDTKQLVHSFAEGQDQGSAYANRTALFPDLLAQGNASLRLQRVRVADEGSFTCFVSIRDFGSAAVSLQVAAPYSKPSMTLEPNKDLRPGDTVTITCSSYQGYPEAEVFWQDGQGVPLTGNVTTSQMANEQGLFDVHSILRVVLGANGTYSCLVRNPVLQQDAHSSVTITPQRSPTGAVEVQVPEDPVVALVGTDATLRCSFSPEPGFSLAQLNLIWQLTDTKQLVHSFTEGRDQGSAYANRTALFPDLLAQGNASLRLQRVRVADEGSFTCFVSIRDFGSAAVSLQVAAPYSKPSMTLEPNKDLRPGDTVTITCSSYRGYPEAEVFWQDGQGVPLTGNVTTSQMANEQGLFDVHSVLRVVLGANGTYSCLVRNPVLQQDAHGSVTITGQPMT

T3: human B7H4 protein (human) (UniProt Q7Z7D3)
T3 sequence (looked up): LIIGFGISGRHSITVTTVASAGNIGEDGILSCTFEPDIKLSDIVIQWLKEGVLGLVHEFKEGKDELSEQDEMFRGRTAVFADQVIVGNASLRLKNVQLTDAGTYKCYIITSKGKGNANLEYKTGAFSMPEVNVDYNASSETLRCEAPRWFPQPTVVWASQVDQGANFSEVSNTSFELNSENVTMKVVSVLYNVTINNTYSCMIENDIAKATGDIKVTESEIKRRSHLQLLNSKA

B1: Ly383 (antibody, human IgG1, kappa, V domains shown)
VH: EVQLQQSGPELVKPGASVKMSCKASGYTFTSYVMHWVKQKPGQGLEWIGYINPYNDGTECTDKFKGKATLTSDKSSSTAYMELSSLTSEDSAVYYCASIYYGYDGTYFGVWGAGTSVTVSS
VL: QIVLSQSPAILSTSPGEKVTMTCRASSSVSYMHWYQQKPGSSPKPWIYATSNLASGVPARFSGSRSGTSYSLTISRVEAEDAATYYCQQWSSNTLTFGGGTKLELKR
B2: Ly387 (antibody, human IgG1, kappa, V domains shown)
VH: QVQLQQPGAELVKPGASVKLSCKASGYTFTSYWMHWVKQRPGQGLEWIGMIHPNSGGTNYNEKFKGKGTLTVDKSSSTAYMQLSSLTSDDSAVYYCVTSQATWFAYWGQGTLVTVSA
VL: ENVLTQSPAIMSVSPGEKVTMTCRASSSVSSSYLHWYQQKSGASPKFWIYSTSNLASGVPARFSGSGSGTSYSLTISSVEAEDAATYYCQHYSGYPLTFGAGTKLELRR
B3: Ly361 (chimeric) (antibody, human IgG1, kappa, V domains shown)
VH: EVQLVESGGDLVKPGGSLKLSCAASGFTFSSYGMSWVRQTPDKRLEWVAAISTGGSYTYYPDSVKGRFTISRDTATNTLYLQMSTLKSEDTAMYYCTRRGATGSWFAYWGQGTLVTVSA
VL: DILMTQSPSSMSVSLGDTVSITCHASQGINNNIGWLQRKPGKSFKGLIYHGTNLEDGVPSRFSGSGSGADYSLTISSLESEDFADYYCVQYVQFPRTFGGGTKLEIKR
B4: Ly366 (chimeric) (antibody, human IgG1, kappa, V domains shown)
VH: EVQLVESGGGLVKPGGSLKLSCAASGFTFSDSGMHWVRQAPEKGLEWITYINSGSSTIYYADSVKGRFTISRDNAKNTLFLQMTSLRSEDTAMYYCARGRGYAMDYWGQGTSVTVSS
VL: EIVLTQSPTTMAASPGEKITIFCSASSSISSDFLHWYQQKPGFSPKLLIYRISNLASGVPARFSGSGSGTSYSLTIGTMEAEDVATYYCQQGSNVPRTFGGGTKLEIKR

Legend:
[1] = biological target: T1, human B7H3 expressed on CHO cells (human); experiment: FACS, CHO cells
[2] = biological target: T2, B7H3 (human); experiment: assay not described
[3] = biological target: T3, human B7H4 protein (human); experiment: assay not described

Binder | binding [1] | binding [2] | binding [3]
B1 | binds | binds | 
B2 | binds | binds | 
B3 |  |  | binds
B4 |  |  | binds
